Assay results: doi:10.1101/624627
These are yes or no findings as the source states them, for the method shown. Binding seen in cells or lysates may run through a third protein. Some binding calls cover weakened binding; strength is not graded here.

Protein sequences, listed by entry. Tags and fused reporters are not part of them. Lines headed by an entry give the natural chain unless they say otherwise; changes in a name come on top. Chains listed by the source or under a name are the forms on record and can include a tag or linker. Residues count along the entry.
UniProt Q2TAZ0: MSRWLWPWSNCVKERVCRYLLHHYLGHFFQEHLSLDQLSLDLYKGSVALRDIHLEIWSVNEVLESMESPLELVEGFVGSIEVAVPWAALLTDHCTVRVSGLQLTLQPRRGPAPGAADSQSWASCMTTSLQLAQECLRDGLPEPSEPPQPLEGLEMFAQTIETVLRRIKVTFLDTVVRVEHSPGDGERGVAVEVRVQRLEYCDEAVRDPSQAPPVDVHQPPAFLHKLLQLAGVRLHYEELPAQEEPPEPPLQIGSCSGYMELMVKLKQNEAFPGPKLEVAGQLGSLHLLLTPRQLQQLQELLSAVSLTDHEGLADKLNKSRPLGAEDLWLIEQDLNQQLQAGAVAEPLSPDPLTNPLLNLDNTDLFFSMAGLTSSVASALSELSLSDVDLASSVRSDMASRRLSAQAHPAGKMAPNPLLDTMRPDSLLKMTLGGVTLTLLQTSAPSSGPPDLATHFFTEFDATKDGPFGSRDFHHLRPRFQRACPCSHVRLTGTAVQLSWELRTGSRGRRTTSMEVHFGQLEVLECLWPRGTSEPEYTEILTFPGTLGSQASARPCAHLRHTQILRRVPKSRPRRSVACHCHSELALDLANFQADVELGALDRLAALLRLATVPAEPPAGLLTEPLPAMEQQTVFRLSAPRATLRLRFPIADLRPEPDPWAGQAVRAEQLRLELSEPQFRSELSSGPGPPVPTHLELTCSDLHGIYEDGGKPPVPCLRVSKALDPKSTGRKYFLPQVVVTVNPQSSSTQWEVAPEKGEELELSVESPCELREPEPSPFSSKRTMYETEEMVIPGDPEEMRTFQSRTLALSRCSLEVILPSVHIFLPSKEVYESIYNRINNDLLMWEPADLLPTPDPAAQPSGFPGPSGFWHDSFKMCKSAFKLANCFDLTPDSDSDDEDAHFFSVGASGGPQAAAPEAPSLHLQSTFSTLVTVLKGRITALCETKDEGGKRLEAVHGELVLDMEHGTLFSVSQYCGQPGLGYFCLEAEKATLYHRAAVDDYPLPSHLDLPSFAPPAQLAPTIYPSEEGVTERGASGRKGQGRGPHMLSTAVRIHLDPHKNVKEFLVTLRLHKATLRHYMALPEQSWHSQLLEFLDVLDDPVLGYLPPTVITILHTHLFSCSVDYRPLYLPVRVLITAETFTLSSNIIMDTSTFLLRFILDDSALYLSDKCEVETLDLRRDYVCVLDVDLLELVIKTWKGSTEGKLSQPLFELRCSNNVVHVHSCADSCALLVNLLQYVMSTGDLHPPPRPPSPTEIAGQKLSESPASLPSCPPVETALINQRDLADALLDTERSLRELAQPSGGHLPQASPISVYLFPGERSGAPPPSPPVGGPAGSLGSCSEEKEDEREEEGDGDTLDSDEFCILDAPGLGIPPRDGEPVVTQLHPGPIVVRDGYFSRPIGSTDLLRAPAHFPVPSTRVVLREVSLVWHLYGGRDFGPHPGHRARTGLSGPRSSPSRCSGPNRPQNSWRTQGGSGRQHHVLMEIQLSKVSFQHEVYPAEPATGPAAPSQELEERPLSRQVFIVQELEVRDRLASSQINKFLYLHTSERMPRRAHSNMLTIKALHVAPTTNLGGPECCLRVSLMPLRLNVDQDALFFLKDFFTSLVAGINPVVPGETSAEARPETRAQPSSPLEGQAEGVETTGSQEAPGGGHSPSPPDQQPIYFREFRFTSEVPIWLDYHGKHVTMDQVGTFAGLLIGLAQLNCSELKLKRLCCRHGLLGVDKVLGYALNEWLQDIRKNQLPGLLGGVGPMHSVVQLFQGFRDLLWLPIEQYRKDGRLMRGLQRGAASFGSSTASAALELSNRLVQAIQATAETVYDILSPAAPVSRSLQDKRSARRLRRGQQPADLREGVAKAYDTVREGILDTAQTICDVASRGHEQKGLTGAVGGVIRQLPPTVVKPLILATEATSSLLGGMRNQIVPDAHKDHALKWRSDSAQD
UniProt O95166: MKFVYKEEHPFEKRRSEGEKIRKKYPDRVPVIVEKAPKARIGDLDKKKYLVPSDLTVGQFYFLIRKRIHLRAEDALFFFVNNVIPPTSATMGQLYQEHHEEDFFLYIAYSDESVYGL
UniProt Q9BXW4, residues 1-126: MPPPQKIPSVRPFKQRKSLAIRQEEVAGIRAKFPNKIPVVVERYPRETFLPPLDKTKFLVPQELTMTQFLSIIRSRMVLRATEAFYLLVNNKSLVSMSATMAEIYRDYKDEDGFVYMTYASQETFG
UniProt Q96BY7: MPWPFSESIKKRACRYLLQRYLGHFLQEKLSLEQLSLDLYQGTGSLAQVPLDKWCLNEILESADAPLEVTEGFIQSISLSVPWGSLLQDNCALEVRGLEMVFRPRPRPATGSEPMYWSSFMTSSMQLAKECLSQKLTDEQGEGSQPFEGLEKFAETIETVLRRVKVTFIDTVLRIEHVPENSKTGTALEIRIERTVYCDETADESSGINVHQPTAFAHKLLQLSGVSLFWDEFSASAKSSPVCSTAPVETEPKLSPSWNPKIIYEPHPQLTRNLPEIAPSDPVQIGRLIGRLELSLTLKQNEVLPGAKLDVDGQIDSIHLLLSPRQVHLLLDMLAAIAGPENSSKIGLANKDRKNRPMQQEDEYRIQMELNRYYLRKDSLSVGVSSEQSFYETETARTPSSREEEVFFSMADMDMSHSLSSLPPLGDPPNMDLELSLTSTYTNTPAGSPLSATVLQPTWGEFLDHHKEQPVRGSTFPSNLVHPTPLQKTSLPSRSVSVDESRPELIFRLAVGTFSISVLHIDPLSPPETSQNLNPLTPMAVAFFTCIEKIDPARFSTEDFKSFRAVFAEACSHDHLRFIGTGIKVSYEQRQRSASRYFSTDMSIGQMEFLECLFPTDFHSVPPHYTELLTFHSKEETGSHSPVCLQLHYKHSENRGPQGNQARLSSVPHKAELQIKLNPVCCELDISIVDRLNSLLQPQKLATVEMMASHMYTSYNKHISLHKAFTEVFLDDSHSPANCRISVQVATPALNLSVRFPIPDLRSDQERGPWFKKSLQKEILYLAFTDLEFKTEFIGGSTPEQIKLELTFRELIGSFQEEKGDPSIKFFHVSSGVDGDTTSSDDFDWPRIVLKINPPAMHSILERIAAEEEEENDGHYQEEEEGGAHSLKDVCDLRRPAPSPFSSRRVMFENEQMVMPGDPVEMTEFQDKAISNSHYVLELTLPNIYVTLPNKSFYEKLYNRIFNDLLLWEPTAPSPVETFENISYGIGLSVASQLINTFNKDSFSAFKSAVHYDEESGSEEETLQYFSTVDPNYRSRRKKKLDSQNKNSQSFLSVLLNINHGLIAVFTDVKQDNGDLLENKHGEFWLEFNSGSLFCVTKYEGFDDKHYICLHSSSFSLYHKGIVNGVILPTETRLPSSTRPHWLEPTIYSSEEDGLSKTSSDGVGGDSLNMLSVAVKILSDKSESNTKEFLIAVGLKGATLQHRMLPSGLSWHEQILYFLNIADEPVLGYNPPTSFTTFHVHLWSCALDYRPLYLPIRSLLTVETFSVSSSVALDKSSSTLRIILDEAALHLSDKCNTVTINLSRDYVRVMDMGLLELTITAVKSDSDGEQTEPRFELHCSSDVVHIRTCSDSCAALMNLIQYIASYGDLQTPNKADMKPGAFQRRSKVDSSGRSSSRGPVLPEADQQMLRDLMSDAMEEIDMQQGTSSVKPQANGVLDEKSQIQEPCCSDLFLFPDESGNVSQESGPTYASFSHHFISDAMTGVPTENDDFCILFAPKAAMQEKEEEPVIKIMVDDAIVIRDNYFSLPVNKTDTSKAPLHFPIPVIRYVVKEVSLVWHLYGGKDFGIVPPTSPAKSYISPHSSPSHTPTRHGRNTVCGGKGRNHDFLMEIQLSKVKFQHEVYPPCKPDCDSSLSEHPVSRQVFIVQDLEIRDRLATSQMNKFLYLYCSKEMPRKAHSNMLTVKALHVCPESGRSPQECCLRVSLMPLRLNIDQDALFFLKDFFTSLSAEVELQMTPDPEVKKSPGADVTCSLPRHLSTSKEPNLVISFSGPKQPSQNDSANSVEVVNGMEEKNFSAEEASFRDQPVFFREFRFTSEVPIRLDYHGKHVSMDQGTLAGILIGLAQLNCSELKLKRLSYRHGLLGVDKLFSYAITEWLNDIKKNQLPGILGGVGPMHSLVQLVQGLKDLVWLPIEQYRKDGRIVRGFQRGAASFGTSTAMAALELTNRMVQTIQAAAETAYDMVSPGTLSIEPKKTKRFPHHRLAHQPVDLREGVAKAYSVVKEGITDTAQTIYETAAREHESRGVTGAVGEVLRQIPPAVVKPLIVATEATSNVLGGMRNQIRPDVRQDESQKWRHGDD
Myc-tagged ATG2B mutant LIR (FCIL/AAAA) (Q96BY7, form named): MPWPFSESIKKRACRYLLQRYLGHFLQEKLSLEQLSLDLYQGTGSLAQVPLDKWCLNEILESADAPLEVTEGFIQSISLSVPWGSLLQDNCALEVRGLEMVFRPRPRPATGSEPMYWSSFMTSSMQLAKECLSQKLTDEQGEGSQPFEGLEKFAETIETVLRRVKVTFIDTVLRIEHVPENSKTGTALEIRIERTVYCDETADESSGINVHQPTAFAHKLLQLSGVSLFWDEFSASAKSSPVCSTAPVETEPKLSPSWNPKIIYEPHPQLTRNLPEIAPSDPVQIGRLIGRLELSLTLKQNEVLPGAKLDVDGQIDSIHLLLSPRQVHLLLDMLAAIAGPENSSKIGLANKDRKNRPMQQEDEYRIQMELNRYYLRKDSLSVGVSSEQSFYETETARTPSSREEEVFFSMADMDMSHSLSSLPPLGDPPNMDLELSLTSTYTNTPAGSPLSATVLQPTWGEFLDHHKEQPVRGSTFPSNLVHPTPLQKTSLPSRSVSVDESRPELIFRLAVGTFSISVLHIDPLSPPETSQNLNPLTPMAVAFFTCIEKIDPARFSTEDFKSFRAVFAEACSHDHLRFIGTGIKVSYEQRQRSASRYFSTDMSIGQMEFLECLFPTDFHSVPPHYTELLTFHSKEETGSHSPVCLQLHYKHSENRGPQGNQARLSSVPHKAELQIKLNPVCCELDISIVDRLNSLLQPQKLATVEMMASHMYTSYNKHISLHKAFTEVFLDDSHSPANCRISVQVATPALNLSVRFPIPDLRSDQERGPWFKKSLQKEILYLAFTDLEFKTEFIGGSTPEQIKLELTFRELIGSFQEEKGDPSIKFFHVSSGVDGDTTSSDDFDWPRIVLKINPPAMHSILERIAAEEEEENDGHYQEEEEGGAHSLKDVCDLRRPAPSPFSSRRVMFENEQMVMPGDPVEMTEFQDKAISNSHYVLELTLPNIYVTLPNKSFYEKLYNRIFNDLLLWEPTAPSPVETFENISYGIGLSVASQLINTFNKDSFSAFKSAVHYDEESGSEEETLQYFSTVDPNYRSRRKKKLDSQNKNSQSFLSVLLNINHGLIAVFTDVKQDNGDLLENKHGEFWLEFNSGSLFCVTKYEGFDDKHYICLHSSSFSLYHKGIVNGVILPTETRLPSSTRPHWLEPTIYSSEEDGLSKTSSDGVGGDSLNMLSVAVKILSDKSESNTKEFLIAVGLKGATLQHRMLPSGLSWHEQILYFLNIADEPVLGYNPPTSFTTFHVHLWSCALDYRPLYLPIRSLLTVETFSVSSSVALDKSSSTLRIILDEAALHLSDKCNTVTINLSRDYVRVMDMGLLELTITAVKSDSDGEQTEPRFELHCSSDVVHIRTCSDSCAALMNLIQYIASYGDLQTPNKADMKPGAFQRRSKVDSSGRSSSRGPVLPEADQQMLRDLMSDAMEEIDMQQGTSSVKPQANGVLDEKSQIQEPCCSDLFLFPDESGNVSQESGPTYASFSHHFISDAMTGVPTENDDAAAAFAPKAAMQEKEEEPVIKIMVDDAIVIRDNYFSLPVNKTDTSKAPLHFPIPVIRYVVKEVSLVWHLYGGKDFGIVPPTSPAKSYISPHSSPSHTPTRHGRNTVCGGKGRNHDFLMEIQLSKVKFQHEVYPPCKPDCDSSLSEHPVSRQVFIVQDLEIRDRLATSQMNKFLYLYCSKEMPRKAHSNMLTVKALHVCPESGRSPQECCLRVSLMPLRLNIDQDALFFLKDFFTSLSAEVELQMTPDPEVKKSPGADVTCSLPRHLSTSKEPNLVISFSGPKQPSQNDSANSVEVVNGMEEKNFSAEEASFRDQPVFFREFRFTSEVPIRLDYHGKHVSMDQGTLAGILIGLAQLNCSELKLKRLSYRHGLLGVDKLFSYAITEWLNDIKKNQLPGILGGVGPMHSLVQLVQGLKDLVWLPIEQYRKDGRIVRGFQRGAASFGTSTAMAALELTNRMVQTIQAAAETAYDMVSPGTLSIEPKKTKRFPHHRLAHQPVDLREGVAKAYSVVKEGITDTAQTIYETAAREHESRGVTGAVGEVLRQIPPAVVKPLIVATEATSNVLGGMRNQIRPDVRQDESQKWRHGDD

Legend:
[1] = molecular target: HA-tagged ATG2A-mLIR (FCIL/AAAA) (human) (UniProt Q2TAZ0); experiment: co-IP
[2] = molecular target: HA-tagged ATG2A-mYFS (YFS/AAA) (human) (UniProt Q2TAZ0); experiment: co-IP
[3] = molecular target: GFP-tagged GABARAP (HEK293T) (UniProt O95166); experiment: co-IP
GST-tagged GABARAP = GST-tagged GABARAP (UniProt O95166); experiment: pull-down
GST-tagged LC3C = GST-tagged LC3C (UniProt Q9BXW4); experiment: pull-down
GST-tagged LC3A = GST-tagged LC3A (UniProt Q9H492); experiment: pull-down

| binding [1] | binding [2] | binding [3] | binding (GST-tagged GABARAP) | binding (GST-tagged LC3C) | binding (GST-tagged LC3A) | Substance |
| --- | --- | --- | --- | --- | --- | --- |
| no binding | binds | – | – | – | – | GFP-tagged GABARAP (U2OS ATG2A/B DKO cells) (from UniProt O95166 1-117) |
| – | – | binds | – | – | – | Myc-ATG2A-mLIR#2 (FSTL/AAAA) (from UniProt Q2TAZ0-1 1-1938) |
| – | – | no binding | no binding | no binding | no binding | Myc-tagged ATG2A mutant LIR (FCIL/AAAA) (from UniProt Q2TAZ0-1 1-1938) |
| – | – | – | – | – | binds | Myc-tagged ATG2A wild type (from UniProt Q2TAZ0-1 1-1938) |
| – | – | no binding | no binding | no binding | no binding | Myc-tagged ATG2B mutant LIR (FCIL/AAAA) (from UniProt Q96BY7 1-2078) |
| – | – | binds | binds | – | binds | Myc-tagged ATG2B wild type (from UniProt Q96BY7 1-2078) |
